Test results reported in patent US6843854B2, “Method and apparatus for separating a component from a mixture” (Purdue Research Foundation, priority 2002, dated 2005).

Experiment: Five zone SMB separation experiments, purity and yield at Raffinate
[1] = Five Zone SMB Experiment #7, cycles 1-223
[2] = Five Zone SMB Experiment #7, cycles 224-242
[3] = Five Zone SMB Experiment #7, cycles 243-252
[4] = Five Zone SMB Experiment #7, cycles 253-273
[5] = Five Zone SMB Experiment #7, cycles 274-312
[6] = Five Zone SMB Experiment #7, cycles 313-333

CC[C@H]1OC(=O)[C@H](C)[C@@H](O[C@H]2C[C@@](C)(OC)[C@@H](O)[C@H](C)O2)[C@H](C)[C@@H](O[C@@H]2O[C@H](C)C[C@H](N(C)C)[C@H]2O)[C@](C)(OC)C[C@@H](C)C(=O)[C@H](C)[C@@H](O)[C@]1(C)O [Clarithromycin, 6-O-methyl erythromycin A]
Avg. Clarithromycin Purity at Raffinate [1]: 99.9% | Avg. Clarithromycin Yield at Raffinate [1]: 75.7% | Avg. Raffinate Clarithromycin Concentration [1]: 0.376 g/L | Avg. Clarithromycin Purity at Raffinate [2]: 99.9% | Avg. Clarithromycin Yield at Raffinate [2]: 74.9% | Avg. Raffinate Clarithromycin Concentration [2]: 0.419 g/L | Avg. Clarithromycin Purity at Raffinate [3]: 99.9% | Avg. Clarithromycin Yield at Raffinate [3]: 80.0% | Avg. Raffinate Clarithromycin Concentration [3]: 0.410 g/L | Avg. Clarithromycin Purity at Raffinate [4]: 99.9% | Avg. Clarithromycin Yield at Raffinate [4]: 86.1% | Avg. Raffinate Clarithromycin Concentration [4]: 0.451 g/L | Avg. Clarithromycin Purity at Raffinate [5]: 99.9% | Avg. Clarithromycin Yield at Raffinate [5]: 87.8% | Avg. Raffinate Clarithromycin Concentration [5]: 0.430 g/L | Avg. Clarithromycin Purity at Raffinate [6]: 99.9% | Avg. Clarithromycin Yield at Raffinate [6]: 91.2% | Avg. Raffinate Clarithromycin Concentration [6]: 0.445 g/L
